Data as given in publication PMC8528721, “Hop2 interacts with the transcription factor CEBPα and suppresses adipocyte differentiation” (The Journal of Biological Chemistry, 2021).
These are yes or no findings as the source states them, for the method shown. For some of these results: In cells and extracts the contact can be indirect. Some results given as binding are weak or reduced against the parent protein; the word gives no strength. For some of these results: Where a sequence is shown, tags or fusion partners need not be part of it.

By UniProt entry, the sequences of proteins in these tests, tags left out. Where a name states a change or a piece, a line headed by the entry shows the natural chain unless it says otherwise.
UniProt P28033: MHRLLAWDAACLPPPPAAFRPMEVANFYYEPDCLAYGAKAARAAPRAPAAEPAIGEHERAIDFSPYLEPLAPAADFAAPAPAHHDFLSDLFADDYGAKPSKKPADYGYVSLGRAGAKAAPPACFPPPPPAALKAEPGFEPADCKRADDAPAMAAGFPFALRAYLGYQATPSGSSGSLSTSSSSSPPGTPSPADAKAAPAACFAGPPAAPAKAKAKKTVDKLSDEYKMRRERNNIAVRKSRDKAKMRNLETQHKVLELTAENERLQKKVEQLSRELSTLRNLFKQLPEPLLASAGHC
UniProt P53566: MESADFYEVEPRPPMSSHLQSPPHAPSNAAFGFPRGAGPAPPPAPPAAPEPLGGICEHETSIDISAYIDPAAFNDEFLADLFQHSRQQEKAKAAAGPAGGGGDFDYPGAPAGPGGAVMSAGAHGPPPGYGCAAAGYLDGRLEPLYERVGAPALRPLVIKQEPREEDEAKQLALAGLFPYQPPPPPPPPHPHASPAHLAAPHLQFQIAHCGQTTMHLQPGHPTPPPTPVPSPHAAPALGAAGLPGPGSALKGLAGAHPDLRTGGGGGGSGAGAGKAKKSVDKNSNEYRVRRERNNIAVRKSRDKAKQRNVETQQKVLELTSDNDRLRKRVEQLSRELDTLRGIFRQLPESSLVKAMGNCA

What was measured:
[1] = molecular target: T1, endogenous Hop2 (homologous pairing protein 2) (mouse (endogenous in mouse visceral adipose tissue and 3T3-L1 cells)) (UniProt O35047); test: co-IP; Nuclear extracts of wt mouse visceral adipose tissue; IP with antibodies against Hop2, CEBPα, CEBPβ or CEBPδ, anti-IgG as negative control; Western blot; endogenous proteins
T1 sequence: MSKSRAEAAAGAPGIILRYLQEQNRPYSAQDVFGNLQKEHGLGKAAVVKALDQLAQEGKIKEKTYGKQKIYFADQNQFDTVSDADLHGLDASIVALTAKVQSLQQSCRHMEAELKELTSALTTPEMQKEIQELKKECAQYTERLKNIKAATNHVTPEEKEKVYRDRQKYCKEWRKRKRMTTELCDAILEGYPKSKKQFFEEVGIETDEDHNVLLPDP

[2] = molecular target: T1, endogenous Hop2 (homologous pairing protein 2) (mouse (endogenous in mouse visceral adipose tissue and 3T3-L1 cells)); test: co-IP; Nuclear extracts of differentiating 3T3-L1 cultures after adipogenic induction (day 2 for CEBPβ and CEBPδ, day 4 for CEBPα); endogenous proteins; Western blot
[3] = molecular target: T2, hemagglutinin (HA)-tagged Hop2 (UniProt O35047); test: co-IP; Nuclear extracts of COS1 cells transfected with HA-Hop2, Flag-CEBPα or both; anti-Flag M2 beads or anti-HA with IgA/G beads in radioimmunoprecipitation buffer overnight at 4 °C; Western blot
T2 sequence: T1 sequence

[4] = molecular target: T3, GST-Hop2 fusion protein (homologous pairing protein 2) (UniProt O35047); test: pull-down; GST-Hop2 or GST bound on glutathione-sepharose 4B, incubated with purified His-C/EBPα (1 μg) for 2 h in PBS pH 7.4 at 4 °C; three washes with PBS; SDS-PAGE, Coomassie staining; both purified
T3 sequence: T1 sequence

[5] = molecular target: endogenous CEBPβ (CCAAT enhancer binding protein beta) (mouse (endogenous in mouse visceral adipose tissue and 3T3-L1 cells)) (UniProt P28033); test: co-IP; Nuclear extracts of wt mouse visceral adipose tissue; IP with antibodies against Hop2, CEBPα, CEBPβ or CEBPδ, anti-IgG as negative control; Western blot; endogenous proteins
[6] = molecular target: endogenous CEBPα (CCAAT enhancer binding protein alpha) (mouse (endogenous in mouse visceral adipose tissue and 3T3-L1 cells)) (UniProt P53566); test: as above
[7] = molecular target: T4, endogenous CEBPδ (CCAAT enhancer binding protein delta) (mouse (endogenous in mouse visceral adipose tissue and 3T3-L1 cells)) (UniProt Q00322); test: as above
T4 sequence: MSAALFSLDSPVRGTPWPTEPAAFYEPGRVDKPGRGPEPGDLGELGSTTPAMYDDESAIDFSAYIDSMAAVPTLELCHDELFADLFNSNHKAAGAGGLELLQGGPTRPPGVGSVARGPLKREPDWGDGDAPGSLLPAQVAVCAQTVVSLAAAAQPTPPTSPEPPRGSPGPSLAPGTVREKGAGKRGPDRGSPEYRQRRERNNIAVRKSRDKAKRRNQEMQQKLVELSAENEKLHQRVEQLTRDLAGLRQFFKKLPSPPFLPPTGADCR

[8] = molecular target: endogenous CEBPβ (CCAAT enhancer binding protein beta) (mouse (endogenous in mouse visceral adipose tissue and 3T3-L1 cells)) (UniProt P28033); test: co-IP; Nuclear extracts of differentiating 3T3-L1 cultures after adipogenic induction (day 2 for CEBPβ and CEBPδ, day 4 for CEBPα); endogenous proteins; Western blot
[9] = molecular target: endogenous CEBPα (CCAAT enhancer binding protein alpha) (mouse (endogenous in mouse visceral adipose tissue and 3T3-L1 cells)) (UniProt P53566); test: as above
[10] = molecular target: T4, endogenous CEBPδ (CCAAT enhancer binding protein delta) (mouse (endogenous in mouse visceral adipose tissue and 3T3-L1 cells)); test: as above
[11] = molecular target: His-tagged CEBPα (CCAAT enhancer binding protein alpha) (UniProt P53566); test: pull-down; His-CEBPα (1 μg) on Ni-NTA-agarose in PBS pH 8.0 with 10 mM imidazole, 4 °C; GST-Hop2 (1 μg) added for 2 h at 4 °C; washes with PBS with 50 mM imidazole; SDS-PAGE, Coomassie staining; GST-Hop2 alone on beads as negative control; both purified
[12] = molecular target: Flag-tagged CEBPα (UniProt P53566 1-359); test: co-IP; Nuclear extracts of COS1 cells transfected with HA-Hop2, Flag-CEBPα or both; anti-Flag M2 beads or anti-HA with IgA/G beads in radioimmunoprecipitation buffer overnight at 4 °C; Western blot

endogenous CEBPβ (CCAAT enhancer binding protein beta) (from UniProt P28033-1 1-296)
binding [1]: binds
binding [2]: binds

Flag-tagged CEBPα (from UniProt P53566 1-359)
binding [3]: binds

His-tagged CEBPα (CCAAT enhancer binding protein alpha) (from UniProt P53566 1-359)
binding [4]: binds

endogenous CEBPα (CCAAT enhancer binding protein alpha) (from UniProt P53566-1 1-359)
binding [1]: binds
binding [2]: binds

B1: endogenous Hop2 (homologous pairing protein 2) (protein, UniProt O35047 1-217)
chain: T1 sequence
binding [5]: binds
binding [6]: binds
binding [7]: binds
binding [8]: binds
binding [9]: binds
binding [10]: binds

B2: endogenous CEBPδ (CCAAT enhancer binding protein delta) (protein, UniProt Q00322 1-268)
chain: T4 sequence
binding [1]: binds
binding [2]: binds

B3: GST-Hop2 fusion protein (homologous pairing protein 2) (protein, UniProt O35047 1-217)
chain: T1 sequence
binding [11]: binds

B4: hemagglutinin (HA)-tagged Hop2 (natural protein, UniProt O35047 1-217, looked up)
chain: T1 sequence
binding [12]: binds
